The text below walks through data of EP4843985A1, “TRIAZOLOPYRIMIDINE DERIVATIVE, PREPARATION METHOD THEREFOR AND USE THEREOF” (dated 2026).

Protein sequences, listed by entry. Tags and fused reporters are not part of them.
UniProt O75469, whole entry: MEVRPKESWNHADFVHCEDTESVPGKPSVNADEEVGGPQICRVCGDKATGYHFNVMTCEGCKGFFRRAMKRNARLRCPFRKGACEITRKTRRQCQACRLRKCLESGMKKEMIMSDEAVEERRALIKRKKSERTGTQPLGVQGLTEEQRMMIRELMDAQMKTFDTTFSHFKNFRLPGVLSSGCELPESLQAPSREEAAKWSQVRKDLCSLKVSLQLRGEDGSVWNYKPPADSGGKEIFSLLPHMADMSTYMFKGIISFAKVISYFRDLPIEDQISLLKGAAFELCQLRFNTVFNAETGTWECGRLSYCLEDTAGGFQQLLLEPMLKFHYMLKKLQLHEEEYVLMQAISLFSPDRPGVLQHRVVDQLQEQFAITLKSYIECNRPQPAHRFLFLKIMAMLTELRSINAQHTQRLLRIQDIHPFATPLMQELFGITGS

The structures given here were assigned with low confidence; some may be wrong.

Data set [1] is described as follows: Plasma protein binding rate (equilibrium dialysis), monkey. The conditions noted are these: 5 µM, 6 hours dialysis. Here is the method: (§1) The purpose of this test was to evaluate the protein binding rate of the test drug in plasma of human, monkey, dog, rat and mouse using the equilibrium dialysis method.
(§2) Plasma (EDTA-K2 anticoagulated) was stored in a -80°C freezer. Stop solution, acetonitrile (containing 100 nM alprazolam, 200 nM caffeine, and 100 nM tolbutamide as internal standards).
(§3) The test article and the control compound ketoconazole were prepared as high-concentration DMSO stock solutions and diluted to 1 mM working solution, with a final test concentration of 5 µM.
(§4) NaH2PO4 (12.0 g) and NaCl (8.77 g) were weighed and dissolved in 1 L of water to prepare an alkaline solution. Na2HPO4 (14.2 g) and NaCl (8.77 g) were weighed and dissolved in 1 L of water to prepare an acidic solution. The alkaline solution and the acidic solution were titrated to pH 7.4.
(§5) The temperatures of the water bath and incubator were pre-adjusted to 37°C. The plasma was removed from -80°C, rapidly thawed in a 37°C water bath, and centrifuged at 2000 g for 5 minutes at room temperature. The clot was removed, and the supernatant was transferred to a new centrifuge tube. The pH of the plasma was tested and recorded. (Note: a. Only plasma with a pH range of 7.2-7.8 was used. b. Only plasma that had been thawed no more than twice after receipt was used.)
(§6) The equilibrium dialysis membrane was soaked in pure water for 60 minutes, then in 20% ethanol for 20 minutes, and finally in dialysis buffer for 20 minutes. The soaked dialysis membrane was then spread flat on a clean HTDialysis clamping device, and the dialysis device was assembled according to the product manual.
(§7) 3 µL of the working solution of the test drug and the control drug was taken and added to 597 µL of pre-incubated plasma, and mixed thoroughly. The final organic solvent content in the incubation system was 0.5%. […]
(§8) All data calculations were performed using Microsoft Excel software. The concentrations of the drug in free samples and plasma samples were determined. […]
In general terms: In equilibrium dialysis free small molecules cross a membrane that holds back macromolecules.

A short description of data set [2]: Plasma protein binding rate (equilibrium dialysis), dog. The conditions noted are these: 5 µM, 6 hours dialysis. Here is the method:
as §1, §2, §3, §4, §5, §6, §7, §8

The target in the next data set is PXR (Homo sapiens, UniProt O75469). The data set can be described thus: PXR activation in stably transfected DPX2 cells (luciferase reporter). Conditions: at 10 µM. Here is the method: The purpose of this study was to evaluate the potential of the test article to activate PXR in vitro and thereby induce drug-metabolizing enzymes.
DPX2 cells (HepG2 cell line stably transfected with PXR and a luciferase-linked CYP3A4 promoter reporter gene) were purchased from Puracyp Inc (Carlsbad, CA); fetal bovine serum was purchased from Acantor.
• 1) DPX2 cells were cultured using a culture medium containing 10% fetal bovine serum (FBS). • 2) DPX2 cells were cultured in T-75 culture flask in a cell culture incubator at 37°C, 5% CO2, and 95% relative humidity. […] After 24 or 48 hours of cell treatment, quantitative determination of PXR activation was performed. • 8) The CellTiter Fluor™ cell viability assay kit and the One-Glo luciferase assay kit were brought to room temperature. […] 25 µL of the prepared cell viability assay system was gently added to each well, and then the plate was incubated at 37°C in the cell culture incubator for 30 minutes. • 10) The 384-well plate was removed from the cell culture incubator, and the fluorescence value of each well was read using a microplate reader in fluorescence mode with excitation at 400 nm and emission at 505 nm. […] After incubation with vortex shaking at room temperature for 5 minutes, the luminescence value of each well was read using a microplate reader. […]

In data set [1], `[2H]C1([2H])CCC(c2nc3n4c(c(N5CCN(C(=O)c6ncnc(C)c6O)[C@H]6CC[C@@H]65)c(=O)n3n2)[C@H](C)C[C@@H]4C(=O)Nc2scc(C(F)(F)F)c2C)=CCO1` yielded a Bound percentage of 96.40, a Free percentage of 3.60 and a Recovery rate of 92.3%. Also, in data set [2], the Bound percentage was found to be 91.91, the Free percentage is 8.09 and the Recovery rate came to 90%. Moreover, the Fold activation on PXR is listed as 1.44.
